# Assay results published in the supplement of paper PMC8728848.
# This is one part of the list.
# B1: OS9-MRH (Homo sapiens), Q13438 (protein)
# chain: IPELLSPMRDAPCLLKTKDWWTYEFCYGRHIQQYHMEDSEIKGEVLYLGYYQSAFDWDDETAKASKQHRLKRYHSQTYGNGSKCDLNGRPREAEVRFLCDEGAGISGDYIDRVDEPLSCSYVLTIRTPRLCPHPLLRPPPSAAPQAI
# How the values were obtained:
# Assay in all cases: glycan array binding signal (z-score within array); higher = stronger binding
# Details in all cases: glycan notation: IUPAC condensed, linker removed
# [1] = target: Fuc(a1-3)[Gal3S(b1-4)]GlcNAc
# Method in brief: (§1)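 The binding signal is a Z-score computed within each array and averaged over linkers. Arrays of the same protein sequence at different concentrations or buffers were also averaged together. Data originate from 3228 arrays in the Consortium for Functional Glycomics database, kept only where the protein sequence was available.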
# [2] = target: Fuc(a1-3)[Gal3S(b1-4)]GlcNAc6S
# Method in brief: as §1
# [3] = target: Fuc(a1-3)[GalNAc(b1-4)]GlcNAc
# Method in brief: as §1
# [4] = target: Fuc(a1-3)[GalNAc(b1-4)]GlcNAc6S
# Method in brief: as §1
# [5] = target: Fuc(a1-4)GlcNAc
# Method in brief: as §1
# [6] = target: Fuc(b1-3)GlcNAc
# Method in brief: as §1
# [7] = target: Gal(a1-2)Gal
# Method in brief: as §1
# [8] = target: Gal(a1-3)Gal
# Method in brief: as §1
# [9] = target: Gal(a1-3)Gal(b1-3)GlcNAc
# Method in brief: as §1
# [10] = target: Gal(a1-3)Gal(b1-3)GlcNAc(b1-2)Man
# Method in brief: as §1
# [11] = target: Gal(a1-3)Gal(b1-3)GlcNAc(b1-2)Man(a1-3)[Gal(a1-3)Gal(b1-3)GlcNAc(b1-2)Man(a1-6)]Man(b1-4)GlcNAc(b1-4)GlcNAc
# Method in brief: as §1
# [12] = target: Gal(a1-3)Gal(b1-3)GlcNAc(b1-3)GalNAc
# Method in brief: as §1
# [13] = target: Gal(a1-3)Gal(b1-3)GlcNAc(b1-6)GalNAc
# Method in brief: as §1
# [14] = target: Gal(a1-3)Gal(b1-3)[Fuc(a1-4)]GlcNAc(b1-2)Man(a1-3)[Gal(a1-3)Gal(b1-3)[Fuc(a1-4)]GlcNAc(b1-2)Man(a1-6)]Man(b1-4)GlcNAc(b1-4)GlcNAc
# Method in brief: as §1
# [15] = target: Gal(a1-3)Gal(b1-4)Glc
# Method in brief: as §1
# [16] = target: Gal(a1-3)Gal(b1-4)GlcNAc
# Method in brief: as §1
# [17] = target: Gal(a1-3)Gal(b1-4)GlcNAc(b1-2)Man
# Method in brief: as §1
# [18] = target: Gal(a1-3)Gal(b1-4)GlcNAc(b1-2)Man(a1-3)[Gal(a1-3)Gal(b1-4)GlcNAc(b1-2)Man(a1-6)]Man(b1-4)GlcNAc(b1-4)GlcNAc
# Method in brief: as §1
# [19] = target: Gal(a1-3)Gal(b1-4)GlcNAc(b1-3)GalNAc
# Method in brief: as §1
# [20] = target: Gal(a1-3)Gal(b1-4)GlcNAc(b1-6)GalNAc
# Method in brief: as §1
# [21] = target: Gal(a1-3)Gal(b1-4)[Fuc(a1-3)]GlcNAc
# Method in brief: as §1
# [22] = target: Gal(a1-3)Gal(b1-4)[Fuc(a1-3)]GlcNAc(b1-2)Man(a1-3)[Gal(a1-3)Gal(b1-4)[Fuc(a1-3)]GlcNAc(b1-2)Man(a1-6)]Man(b1-4)GlcNAc(b1-4)GlcNAc
# Method in brief: as §1
# [23] = target: Gal(a1-3)GalNAc
# Method in brief: as §1
# [24] = target: Gal(a1-3)[Gal(a1-4)]Gal(b1-4)GlcNAc
# Method in brief: as §1
# [25] = target: Gal(a1-4)Gal(b1-3)GlcNAc(b1-2)Man(a1-3)[Gal(a1-4)Gal(b1-3)GlcNAc(b1-2)Man(a1-6)]Man(b1-4)GlcNAc(b1-4)GlcNAc
# Method in brief: as §1
# [26] = target: Gal(a1-4)Gal(b1-4)Glc
# Method in brief: as §1
# [27] = target: Gal(a1-4)Gal(b1-4)GlcNAc
# Method in brief: as §1
# [28] = target: Gal(a1-4)Gal(b1-4)GlcNAc(b1-2)Man(a1-3)[Gal(a1-4)Gal(b1-4)GlcNAc(b1-2)Man(a1-6)]Man(b1-4)GlcNAc(b1-4)GlcNAc
# Method in brief: as §1
# [29] = target: Gal(a1-4)Gal(b1-4)GlcNAc(b1-3)Gal(b1-4)Glc
# Method in brief: as §1
# [30] = target: Gal(a1-4)GlcNAc
# Method in brief: as §1
# [31] = target: Gal(a1-6)Glc
# Method in brief: as §1
# [32] = target: Gal(b1-2)Gal
# Method in brief: as §1
# [33] = target: Gal(b1-3)Gal
# Method in brief: as §1
# [34] = target: Gal(b1-3)Gal(b1-4)GlcNAc
# Method in brief: as §1
# [35] = target: Gal(b1-3)GalNAc
# Method in brief: as §1
# [36] = target: Gal(b1-3)GalNAc(a1-3)[Fuc(a1-2)]Gal(b1-4)Glc
# Method in brief: as §1
# [37] = target: Gal(b1-3)GalNAc(a1-3)[Fuc(a1-2)]Gal(b1-4)GlcNAc
# Method in brief: as §1
# [38] = target: Gal(b1-3)GalNAc(b1-3)Gal
# Method in brief: as §1
# [39] = target: Gal(b1-3)GalNAc(b1-3)Gal(a1-4)Gal(b1-4)Glc
# Method in brief: as §1
# [40] = target: Gal(b1-3)GalNAc(b1-4)Gal(b1-4)Glc
# Method in brief: as §1
# [41] = target: Gal(b1-3)GalNAc(b1-4)[Neu5Ac(a2-3)]Gal(b1-4)Glc
# Method in brief: as §1
# [42] = target: Gal(b1-3)GlcNAc
# Method in brief: as §1
# [43] = target: Gal(b1-3)GlcNAc(a1-3)Gal(b1-4)GlcNAc
# Method in brief: as §1
# [44] = target: Gal(b1-3)GlcNAc(a1-6)Gal(b1-4)GlcNAc
# Method in brief: as §1
# [45] = target: Gal(b1-3)GlcNAc(b1-2)Man
# Method in brief: as §1
binder,measurement,setting,value
B1,glycan array binding signal (z-score),[1],-0.514
same,glycan array binding signal (z-score),[2],1.39
same,glycan array binding signal (z-score),[3],-0.024
same,glycan array binding signal (z-score),[4],-1.25
same,glycan array binding signal (z-score),[5],0.44
same,glycan array binding signal (z-score),[6],-0.384
same,glycan array binding signal (z-score),[7],0.273
same,glycan array binding signal (z-score),[8],0.749
same,glycan array binding signal (z-score),[9],0.114
same,glycan array binding signal (z-score),[10],0.298
same,glycan array binding signal (z-score),[11],1.34
same,glycan array binding signal (z-score),[12],-0.967
same,glycan array binding signal (z-score),[13],0.317
same,glycan array binding signal (z-score),[14],2.15
same,glycan array binding signal (z-score),[15],0.502
same,glycan array binding signal (z-score),[16],-0.284
same,glycan array binding signal (z-score),[17],0.419
same,glycan array binding signal (z-score),[18],-0.193
same,glycan array binding signal (z-score),[19],-0.842
same,glycan array binding signal (z-score),[20],0.493
same,glycan array binding signal (z-score),[21],0.407
same,glycan array binding signal (z-score),[22],1.16
same,glycan array binding signal (z-score),[23],-0.391
same,glycan array binding signal (z-score),[24],0.456
same,glycan array binding signal (z-score),[25],-0.307
same,glycan array binding signal (z-score),[26],-0.287
same,glycan array binding signal (z-score),[27],0.847
same,glycan array binding signal (z-score),[28],-0.731
same,glycan array binding signal (z-score),[29],-0.569
same,glycan array binding signal (z-score),[30],1.18
same,glycan array binding signal (z-score),[31],0.346
same,glycan array binding signal (z-score),[32],1.81
same,glycan array binding signal (z-score),[33],2.14
same,glycan array binding signal (z-score),[34],-2.16
same,glycan array binding signal (z-score),[35],-0.099
same,glycan array binding signal (z-score),[36],-1.52
same,glycan array binding signal (z-score),[37],0.755
same,glycan array binding signal (z-score),[38],-0.52
same,glycan array binding signal (z-score),[39],2.47
same,glycan array binding signal (z-score),[40],-0.713
same,glycan array binding signal (z-score),[41],-0.354
same,glycan array binding signal (z-score),[42],0.27
same,glycan array binding signal (z-score),[43],0.733
same,glycan array binding signal (z-score),[44],-0.372
same,glycan array binding signal (z-score),[45],1.85

# Random excerpt: 3 records from the list, in no set order.
binder,measurement,setting,value
B1,glycan array binding signal (z-score),[24],0.456
same,glycan array binding signal (z-score),[30],1.18
same,glycan array binding signal (z-score),[40],-0.713
